Assay results taken from US20230286995A1, “METABOLICALLY STABLE PYRIMIDINYL DIHYDROQUINOXALINONES AS TUBULIN POLYMERIZATION INHIBITORS” (UNIVERSITY OF TENNESSEE RESEARCH FOUNDATION, priority 2022, published 2023).

Tested on: A549
Experiment: cells
Conditions: Homo sapiens, A549, read-out: IC50 ± SEM (nM) A549

CC(=O)O[C@H]1C(=O)[C@@]2(C)[C@H]([C@H](OC(=O)c3ccccc3)[C@]3(O)C[C@H](OC(=O)[C@H](O)[C@@H](NC(=O)c4ccccc4)c4ccccc4)C(C)=C1C3(C)C)[C@]1(OC(C)=O)CO[C@@H]1C[C@@H]2O [Paclitaxel, reference compound]
IC50: 9.8 ± 2.1 nM
